Results are given in words; binding and its absence hold for the method and conditions named. In cells and extracts the contact can be indirect. Here binding means that the protein was enriched with, or labelled near, the bait; the list need not be complete. Tags and fused reporters may be left off the sequences shown.

Amino acid sequences for entries named in this document (tags omitted).
UniProt P38903: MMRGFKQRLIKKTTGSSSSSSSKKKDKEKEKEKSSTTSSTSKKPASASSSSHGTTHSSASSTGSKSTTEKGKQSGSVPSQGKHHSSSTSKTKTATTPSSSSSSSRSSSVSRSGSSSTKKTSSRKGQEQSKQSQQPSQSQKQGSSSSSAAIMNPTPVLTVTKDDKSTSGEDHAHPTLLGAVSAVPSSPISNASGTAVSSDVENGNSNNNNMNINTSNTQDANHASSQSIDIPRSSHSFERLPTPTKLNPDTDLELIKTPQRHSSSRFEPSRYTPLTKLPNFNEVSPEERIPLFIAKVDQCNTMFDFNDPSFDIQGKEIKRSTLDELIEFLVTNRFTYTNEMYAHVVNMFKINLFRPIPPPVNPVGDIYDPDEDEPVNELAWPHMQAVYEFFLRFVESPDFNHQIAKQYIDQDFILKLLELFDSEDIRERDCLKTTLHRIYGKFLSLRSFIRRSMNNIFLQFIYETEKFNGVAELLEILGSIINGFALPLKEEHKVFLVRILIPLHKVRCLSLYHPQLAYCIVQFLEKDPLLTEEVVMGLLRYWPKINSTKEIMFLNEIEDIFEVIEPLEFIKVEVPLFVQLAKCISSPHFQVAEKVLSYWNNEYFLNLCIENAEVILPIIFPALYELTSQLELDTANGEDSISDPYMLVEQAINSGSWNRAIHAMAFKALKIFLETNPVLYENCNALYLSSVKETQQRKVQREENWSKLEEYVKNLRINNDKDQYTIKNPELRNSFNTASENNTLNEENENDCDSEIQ

The target in the experiment is T1, Sgo1-6His-3Flag (S. cerevisiae) (UniProt Q08490).
T1 sequence: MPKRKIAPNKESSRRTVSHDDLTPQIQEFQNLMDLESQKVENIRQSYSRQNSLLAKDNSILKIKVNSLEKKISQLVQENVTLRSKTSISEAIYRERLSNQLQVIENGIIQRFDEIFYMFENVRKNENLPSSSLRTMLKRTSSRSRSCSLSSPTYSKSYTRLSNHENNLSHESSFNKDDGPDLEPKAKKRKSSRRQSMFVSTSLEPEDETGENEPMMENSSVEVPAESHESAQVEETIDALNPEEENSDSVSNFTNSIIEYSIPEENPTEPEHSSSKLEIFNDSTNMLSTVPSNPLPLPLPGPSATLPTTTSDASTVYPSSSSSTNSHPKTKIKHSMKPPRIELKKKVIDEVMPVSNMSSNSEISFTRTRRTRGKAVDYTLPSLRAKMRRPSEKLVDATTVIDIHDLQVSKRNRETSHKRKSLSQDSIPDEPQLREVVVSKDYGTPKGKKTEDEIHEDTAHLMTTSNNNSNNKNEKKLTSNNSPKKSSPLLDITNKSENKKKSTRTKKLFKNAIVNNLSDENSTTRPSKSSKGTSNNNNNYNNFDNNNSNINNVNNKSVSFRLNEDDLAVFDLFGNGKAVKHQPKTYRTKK
Description: affinity purification with mass spectrometry; Sgo1-6His-3Flag immunoprecipitated with anti-Flag Protein G Dynabeads from benzonase-treated lysates of benomyl-arrested cells grown at 30°C (wild type, siz1Δ siz2Δ, sgo1-4R, sgo1-3A); label-free quantitative MS in triplicate.

For “Rts1 (endogenous) (from UniProt P38903 1-757)”, the binding result is recorded as “binds”.

The values are drawn from publication PMC8094117.
